In article PMC5476196, “Uptake, biotransformation and elimination of selected pharmaceuticals in a freshwater invertebrate measured using liquid chromatography tandem mass spectrometry” (Chemosphere, 2017):

What was measured:
[1] = across the exposure period
Protocol: (§1) Individual adult organisms (n = 25), both male and female (>5 mg wet weight) were placed in Pyrex glass beakers. G. pulex were carefully transferred to beakers using blunt forceps to avoid any harm to the organisms before exposure. Each beaker contained 25 organisms in 200 mL of exposure media (AFW and test compound). […] All exposure media contained <0.001% of organic solvent (methanol). A total of 300 organisms were used per compound exposure and were sampled for n = 3 per time-point. […] These were subsequently analysed for background contamination. […] Each animal specimen was rinsed with ultra-pure water and then frozen at −20 °C.
(§2) Water samples collected from exposure experiments were filtered using Whatman filters (0.2 μM) and directly injected onto the LC-MS/MS for analysis. For G. pulex, A mass of 50 mg of lyophilised and ground material was extracted by glass bead pulverisation in 5 mL of acetonitrile and diluted with 100 mL of ammonium acetate buffer (10 mM) for loading onto Waters HLB solid phase extraction (SPE) cartridges (6 cc, 200 mg sorbent).

[2] = in vivo; details: both, Gammarus pulex, in vivo, G. pulex
Protocol: as §1, §2
(§3) Briefly, separations were performed on an Agilent HP1100 LC system configured with a Waters SunFire reversed-phase C18 column (150 mm × 2.1 mm, 2.5 μM particle size). […] Detection was performed using a Waters Quattro triple quadrupole mass spectrometer with electrospray ionisation operated in positive and negative polarity switching mode. Quantification of analytes was performed using 3-point internal standard matrix-matched calibration using the peak area ratio of non-labelled analyte (precursor range: 50–300 ng g^−1, biotransformation product range: 50–150 ng g^−1) to the stable isotope labelled internal standard (SIL-IS) (100 ng g^−1).
(§4) Herein, the authors define BCFtotal as the summation of the BCF of both parent/precursor and biotransformation products (i.e. the total body burden). Whereas, BCFparent will be used to describe the BCF determined for the parent compound alone.

[3] = test system: Gammarus pulex; experiment: in vivo; details: simultaneous parametrisation; exposure 1 μg L^−1 (warfarin, propranolol 10 μg L^−1)
Protocol: as §1, §2, §3, §4

[4] = test system: Gammarus pulex; experiment: Biotransformation products in G. pulex after exposure to propranolol, carbamazepine or diazepam (LC-MS/MS); details: after exposure to the precursor compound (propranolol 10 μg L^−1, diazepam 1 μg L^−1)
Protocol: as §1
as §3, with “g^−1). […]” for “g^−1).”

Compound | stability of aqueous pharmaceutical concentration [1] | concentration at 48 h ([2]; pH 8.19, Concentration, 48h Mean, n=3, exposure 1 μg L^−1 (warfarin, propranolol 10 μg L^−1)) [ng/g] | concentration at 48 h ([2]; pH 8.19, internal concentration at the end of the uptake phase, 48 h, exposure 1 μg L^−1 (propranolol 10 μg L^−1)) [ng/g] | k1 (uptake rate constant), Simultaneous [3] | mean concentration of biotransformation product at 48 h (end of the uptake phase) [4] [ng g^−1 dw]
CN1C(=O)CN=C(c2ccccc2)c2cc(Cl)ccc21 [Diazepam, diazepam] | remained stable | 45 | ≤ 51 | 9.5942 | 
O=C1Nc2ccc(Cl)cc2C(c2ccccc2)=NC1O (centres unmarked) [oxazepam] |  |  |  |  | 50 ± 23
